The text below walks through data of PubChem BioAssay AID248 (DTP/NCI, 2004).

The list is a part of this screen's results and no random one: it is rich in T/C values a quarter to a half above the control, in often repeated tests (any T/C) and in doses without a T/C. Other doses and runs of a compound stand elsewhere. T/C gives the treated animals as a percentage of the vehicle group. Some entries give survivors of the animals treated and no T/C: the source holds a T/C of zero for them, seemingly a mark for toxic or unscored doses. Some doses without a T/C left all or most animals alive at the check, yet need not have been tolerated: survival well below the control is almost never listed, so the zero probably covers shortened survival too. Counts of survivors are from the toxicity check (mostly the fifth day) where no day follows; animals may have died later. Schedules are NCI's codes, read here as Q, the interval in days (D) or hours (H), X, the number of doses. Some schedule codes hold Z or #, which are not explained here. Some entries hold several experiments; the values are given in rising order. Some structures stand for samples that the source files as different forms (salt, stereo form or complex); doses refer to the form tested. Where survival is the endpoint, the PubChem record calls one and a half times the control and up active, and a quarter to a half above the control has no call in these data; cut-offs in other NCI protocols can differ. Some T/C values are followed by the survivors on the day toxicity was checked, most often the fifth; without a count, all were alive then.

This test relates to L1210 leukemia ip in BDF1 mice, survival T/C. Description: NCI In Vivo Anticancer Drug Screen. Data for tumor model L1210 Leukemia (intraperitoneal) in B6D2F1 (BDF1) mice. To be noted: T/C endpoint: mean survival time, higher T/C = longer survival.
Setting [1] is: dose: 400.0 mg/kg/injection, schedule: Q04DX003 (ip), vehicle: saline with Tween-80.
The mark [2] stands for this setting: dose: 400.0 mg/kg/injection, schedule: Q01DX009 (ip), vehicle: saline with Tween-80.
The mark [3] stands for this setting: dose: 400.0 mg/kg/injection, schedule: Q04DX003 (ip), vehicle: saline.
The mark [4] stands for this setting: dose: 400.0 mg/kg/injection, schedule: Q01DX001 (ip), vehicle: saline with Tween-80.
Setting [5] is: dose: 400.0 mg/kg/injection, schedule: Q01DX009 (ip), vehicle: Klucel (hydroxypropylcellulose) (HPC).
Setting [6] is: dose: 200.0 mg/kg/injection, schedule: Q04DX003 (ip), vehicle: saline with Tween-80.
The mark [7] stands for this setting: dose: 100.0 mg/kg/injection, schedule: Q04DX003 (ip), vehicle: saline.
The mark [8] stands for this setting: dose: 200.0 mg/kg/injection, schedule: Q04DX003 (ip), vehicle: saline.

Regarding `CNC/C(C)=C/Br`, the survivor count is 2 of 6 (dose: 400.0 mg/kg/injection, schedule: Q04DX003 (ip), vehicle: acetone) and 2 of 6 under setting [1].

As to `O=C1C[C@H]2[C@H](CO)[C@@H](OC(=O)c3ccc(-c4ccccc4)cc3)C[C@H]2O1`, the survivor count (dose: 100.0 mg/kg/injection, schedule: Q01DX009 (ip), vehicle: saline with Tween-80) was 0 of 6; the survivor count (dose: 200.0 mg/kg/injection, schedule: Q01DX009 (ip), vehicle: saline with Tween-80) is reported as 4 of 6; the survivor count under setting [2] is on record as 1 of 6.

On to `C/C=C/c1ccc(OCC)c(OC)c1`, for which the survivor count under setting [3] is recorded as 6 of 6.

On to `O=C1c2cccc([N+](=O)[O-])c2C(=O)N1CCl`, for which the survivor count (dose: 400.0 mg/kg/injection, schedule: Q01DX001 (ip), vehicle: steroid suspending solution) is reported as 4 of 4.

Consider `CCCCC(=O)N(c1ccc(Nc2c3ccccc3nc3cc([N+](=O)[O-])ccc23)cc1)S(C)(=O)=O`, for which the T/C reads like this: (dose: 6.25 mg/kg/injection, schedule: Q01DX009 (sc), vehicle: saline) 129 % of control; (dose: 11.0 mg/kg/injection, schedule: Q04DX003 (ip), vehicle: saline with Tween-80) 137 % of control; (dose: 12.5 mg/kg/injection, schedule: Q01DX009 (ip), vehicle: saline with Tween-80) 144 % of control; (dose: 12.5 mg/kg/injection, schedule: Q01DX009 (sc), vehicle: saline) 138 % of control. Besides, the survivor count (dose: 300.0 mg/kg/injection, schedule: Q04DX003 (ip), vehicle: saline with Tween-80) is on record as 2 of 6.

Take `O=C(O)/C=C/C(=O)OCCO`: the survivor count (dose: 300.0 mg/kg/injection, schedule: Q01DX001 (ip), vehicle: carboxymethylcellulose (CMC)) is reported as 6 of 6.

Take `CCOC(=O)CNC(=O)CBr`: the survivor count runs as follows: (dose: 40.0 mg/kg/injection, schedule: Q01DX Z (ip), vehicle: other) 2 of 6; (dose: 80.0 mg/kg/injection, schedule: Q01DX Z (ip), vehicle: other) 0 of 6.

For the compound `O=C([O][Sb]([O]C(=O)C(F)(F)F)([c]1ccccc1)([c]1ccccc1)[c]1ccccc1)C(F)(F)F`, the survivor count under setting [4] is recorded as 0 of 6.

In the case of `Cc1ccc2c(c1)nc1c3ccccc3nc(-c3ccccc3N)n21`, the survivor count under setting [2] is 6 of 6.

Consider `NC(N)=N/N=C(\CBr)c1ccc([N+](=O)[O-])cc1`, for which the survivor count is, setting by setting: (dose: 120.0 mg/kg/injection, schedule: Q01DX Z (ip), vehicle: carboxymethylcellulose (CMC)) 0 of 6; (dose: 240.0 mg/kg/injection, schedule: Q01DX Z (ip), vehicle: carboxymethylcellulose (CMC)) 0 of 6; (dose: 480.0 mg/kg/injection, schedule: Q01DX Z (ip), vehicle: carboxymethylcellulose (CMC)) 0 of 6.

Turning to `CCCCCCCCO/N=C\c1c2c(O)c3c(O)c(C)c4c(c3c1O)C(=O)C(C)(O/C=C\C(OC)C(C)C(OC(C)=O)C(C)C(O)C(C)C(O)C(C)/C=C\C=C(\C)C(=O)N2)O4` (stereo not drawn), the survivor count under setting [5] is on record as 6 of 6.

Regarding `Nc1nc(N)c(CCCCc2ccccc2)c(N)n1`, the survivor count by setting is: (dose: 100.0 mg/kg/injection, schedule: Q01DX Z (ip), vehicle: carboxymethylcellulose (CMC)) 1 of 6; (dose: 200.0 mg/kg/injection, schedule: Q01DX009 (ip), vehicle: Klucel (hydroxypropylcellulose) (HPC)) 0 of 3; (dose: 200.0 mg/kg/injection, schedule: Q01DX Z (ip), vehicle: carboxymethylcellulose (CMC)) 0 of 6; (dose: 400.0 mg/kg/injection, schedule: Q01DX Z (ip), vehicle: carboxymethylcellulose (CMC)) 0 of 6.

For `O=C(OC1CC2CC1C1C=CCC21)c1ccc([N+](=O)[O-])cc1` (stereo not drawn), under “dose: 100.0 mg/kg/injection, schedule: Q01DX001 (ip), vehicle: carboxymethylcellulose (CMC)”, the T/C was 125 % of control.

As to `O=[N+]([O-])CC1CCCCC1O` (stereo not drawn), the survivor count runs as follows: (dose: 100.0 mg/kg/injection, schedule: Q04DX003 (ip), vehicle: saline with Tween-80) 0 of 6; under setting [6], 0 of 6; under setting [1], 2 of 6.

`C=C(C)C1CC=C(C=O)CC1` (stereo not drawn): the survivor count under setting [5] is recorded as 0 of 6.

Take `CSc1ccc2c(c1)N(CCCN(C)C)c1ccccc1S2`: the survivor count by setting is: (dose: 12.5 mg/kg/injection, schedule: Q04DX003 (ip), vehicle: saline) 0 of 6; (dose: 25.0 mg/kg/injection, schedule: Q01DX009 (ip), vehicle: saline) 0 of 6; (dose: 50.0 mg/kg/injection, schedule: Q04DX003 (ip), vehicle: saline) 5 of 6; under setting [7], 0 of 6; under setting [8], 0 of 6; under setting [3], 0 of 6.

Take `O=C(COc1ccccc1)c1ccccc1`: the survivor count (dose: 100.0 mg/kg/injection, schedule: Q04DX002 (ip), vehicle: Klucel (hydroxypropylcellulose) (HPC)) is on record as 3 of 3.

Regarding `CCCCC(N)P(=O)(O)O` (stereo not drawn), the survivor count by setting is: (dose: 100.0 mg/kg/injection, schedule: Q04DX002 (ip), vehicle: saline) 4 of 4; (dose: 200.0 mg/kg/injection, schedule: Q04DX002 (ip), vehicle: saline) 2 of 4; (dose: 400.0 mg/kg/injection, schedule: Q04DX002 (ip), vehicle: saline) 1 of 4.

On to `CCCCNC(C)(C)CS`, for which the survivor count under setting [7] is reported as 3 of 6, the survivor count under setting [8] is 0 of 6 and the survivor count under setting [3] is 0 of 6.

On to `CCn1c(C)[n+](CC)c2ccc(C(C)=O)cc21`, for which the survivor count runs as follows: (dose: 200.0 mg/kg/injection, schedule: Q01DX001 (ip), vehicle: saline with Tween-80) 0 of 6; under setting [4], 0 of 6.

As for `NC(=S)N/N=C/c1ncccc1O`, the survivor count by setting is: (dose: 1.56 mg/kg/injection, schedule: Q01DX015 (ip), vehicle: saline) 0 of 6; (dose: 335.0 mg/kg/injection, schedule: Q01DX Z (ip), vehicle: saline) 2 of 6 and 4 of 6; (dose: 500.0 mg/kg/injection, schedule: Q01DX Z (ip), vehicle: saline) 0 of 6 and 1 of 6. The T/C (dose: 3.13 mg/kg/injection, schedule: Q01DX015 (ip), vehicle: saline) is 127 % of control; the T/C (dose: 6.25 mg/kg/injection, schedule: Q01DX Z (ip), vehicle: saline) is 132 % of control; the T/C (dose: 12.5 mg/kg/injection, schedule: Q01DX015 (ip), vehicle: saline) was 142 % of control; the T/C (dose: 32.0 mg/kg/injection, schedule: Q03HX032 (ip), vehicle: saline with Tween-80) is 126 % of control; the T/C (dose: 50.0 mg/kg/injection, schedule: Q01DX015 (ip), vehicle: saline) is 132 % of control; the T/C (dose: 70.0 mg/kg/injection, schedule: Q03HX032 (ip), vehicle: saline with Tween-80) is 134 % of control. In addition, the T/C runs as follows: (dose: 100.0 mg/kg/injection, schedule: Q01DX Z (ip), vehicle: saline) 144 % of control; (dose: 150.0 mg/kg/injection, schedule: Q01DX Z (oral), vehicle: saline) 128 % of control; (dose: 225.0 mg/kg/injection, schedule: Q01DX Z (ip), vehicle: saline) 138 % of control; (dose: 225.0 mg/kg/injection, schedule: Q01DX Z (oral), vehicle: saline) 126 % of control.

`C#CCCCN1CCC2(CC1)C(=O)N(C(=O)N(C)C)CN2c1ccccc1`: the survivor count runs as follows: under setting [6], 0 of 6; under setting [1], 0 of 6.

Take `CN1CCN=C1c1ccc(NC(=O)Nc2ccc(NC(=O)Nc3ccc(C4=NCCN4C)cc3)cc2)cc1`: the T/C runs as follows: (dose: 22.0 mg/kg/injection, schedule: Q01DX009 (ip), vehicle: saline) 125 % of control; (dose: 33.0 mg/kg/injection, schedule: Q01DX009 (ip), vehicle: saline) 144 % of control [5 of 6 alive]. In addition, the survivor count (dose: 300.0 mg/kg/injection, schedule: Q01DX001 (ip), vehicle: other) is recorded as 0 of 6.
